Results: PubChem BioAssay AID2263 (National Center for Advancing Translational Sciences (NCATS), 2010)
The inconclusive results got no clear call from the source; some entries with a clear call stand among them for comparison. Potencies beside an inconclusive call are fits to weak or partial responses and may not hold up. The source made the active and inactive calls. Calls come from the whole dose curve; as a rule, active = well fitted inhibition curve with a large enough effect; inconclusive = small, poorly fitted or top-dose-only effect, or effect the other way; inactive = flat fitted curve, though single readings scatter.

The chains behind the UniProt entries cited, without tags or fusion partners.
UniProt P14618, whole entry, looked up: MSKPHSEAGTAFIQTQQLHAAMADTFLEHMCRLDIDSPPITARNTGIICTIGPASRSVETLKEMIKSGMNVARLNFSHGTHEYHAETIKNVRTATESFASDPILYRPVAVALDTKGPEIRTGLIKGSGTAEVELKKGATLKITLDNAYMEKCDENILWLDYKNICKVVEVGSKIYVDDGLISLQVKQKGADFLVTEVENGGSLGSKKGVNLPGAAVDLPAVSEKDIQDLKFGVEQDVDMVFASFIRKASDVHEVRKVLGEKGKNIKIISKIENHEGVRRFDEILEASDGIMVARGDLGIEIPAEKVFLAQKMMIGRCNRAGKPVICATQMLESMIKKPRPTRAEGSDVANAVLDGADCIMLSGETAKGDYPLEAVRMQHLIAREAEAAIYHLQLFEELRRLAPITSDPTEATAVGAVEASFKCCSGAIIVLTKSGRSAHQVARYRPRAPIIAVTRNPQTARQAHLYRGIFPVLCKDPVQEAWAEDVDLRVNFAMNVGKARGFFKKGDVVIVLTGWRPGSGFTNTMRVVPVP

The molecules below were run against Pyruvate kinase PKM (Homo sapiens) (UniProt P14618) (assay: Confirmation Concentration-Response Assay for Inhibitors of Human Muscle isoform 2 Pyruvate Kinase). Conditions: purified hPK-M2, Kinase-Glo ATP luminescence, 1 h; series mostly up to 57.5 µM; activity change, negative = inhibition: at the top concentration.
From the text: NIH Chemical Genomics Center [NCGC] Matthew G. Vander Heiden, M.D., Ph.D. [Harvard Medical School, 77 Avenue Louis Pasteur, Boston, MA 02115] MLPCN Grant: 1 R03 MH085679-01 NCGC Assay Overview: Human pyruvate kinase muscle 2 (hPK-M2) enzyme was supplied as a highly purified (>95% pure) preparation from Harvard Medical School and assayed for its ability to generate ATP from ADP using phosphoenolpyruvate (PEP) as a substrate. ATP generation was detected in a coupled reaction by luciferase-mediated luminescence, an ATP-dependent process. Pyruvate kinase substrates, PEP and ADP, were present in the assay at Km and approximately 10-fold below Km respectively. The enzyme was assayed at an intermediate level of activity to screen for both inhibitors and activators.
NCGC Assay Protocol Summary: Three uL of substrate mix (at r.t.) in assay buffer (50 mM Imidazole pH7.2, 50 mM KCl, 7 mM MgCl2, 0.01% Tween 20, 0.05% BSA) was dispensed into white solid bottom 1,536 well microtiter plates so that the final concentrations of substrates in the assay were 0.1 mM ADP and 0.5 mM PEP. 23 nL of compound were delivered by a pin tool and 1 uL of enzyme mix in assay buffer (4 degree Celsius) was added. Plates were incubated at room temperature for 1 hour. Two uL of detection mix (Kinase-Glo, Promega; at 4 degree Celsius protected from light) was added and luminescence read by a ViewLux (Perkin Elmer) at 5 second exposure/plate. Data were normalized to the uninhibited and AC100 inhibition (no enzyme).

| SMILES | Potency | activity change, negative = inhibition |
| --- | --- | --- |
| COc1ccc(-c2cn3ccccc3n2)cc1OC | inconclusive: 11.6 µM [falling, partial curve] |  |
| Cc1ccc2nc(-c3ccco3)c(Nc3ccccc3)n2c1 |  | inactive: -0.532% |
| Cc1ccc(-c2nc3ccccn3c2Nc2ccccc2C)o1 |  | inactive: 9.97% |
| Cc1ccc(Nc2c(-c3ccc(C)s3)nc3cccc(C)n23)cc1 | inconclusive: 36.6 µM [rising, partial curve] |  |
| COc1ccc(-c2nc3ccccn3c2Nc2ccccc2C)cc1 | inconclusive: 9.19 µM [rising, partial curve] |  |
| COc1ccc(C(=O)Nc2cccc(OC)c2)cc1 | inconclusive: 18.3 µM [falling, partial curve] |  |
| Cc1nc(N/N=C/c2ccccn2)sc1C | active: 9.19 µM |  |
| CCOc1ccc(NC(=O)Nc2ccccc2C(N)=O)cc1 | active: 9.19 µM |  |
| Cc1ccc(-n2[nH]c(C)c(/C=N/c3ccccn3)c2=O)cc1 | inconclusive: 10.3 µM [falling, partial curve] |  |
| COc1ccc(-c2nc3cccc(C)n3c2Nc2ccc(C)cc2)cc1 |  | inactive: 5.75% |
| Cc1ccc(Nc2c(-c3ccc(C)s3)nc3ccccn23)cc1 | inconclusive: 10.3 µM [rising, full curve] |  |
| Cc1ccccc1-c1nc(-c2ccccn2)no1 | active: 11.6 µM |  |

Sorted by length of the SMILES (high to low): three of the compounds above.

| SMILES | Potency | activity change, negative = inhibition |
| --- | --- | --- |
| Cc1ccc(Nc2c(-c3ccc(C)s3)nc3ccccn23)cc1 | inconclusive: 10.3 µM [rising, full curve] |  |
| COc1ccc(-c2nc3ccccn3c2Nc2ccccc2C)cc1 | inconclusive: 9.19 µM [rising, partial curve] |  |
| COc1ccc(-c2cn3ccccc3n2)cc1OC | inconclusive: 11.6 µM [falling, partial curve] |  |
